PubChem BioAssay AID1259308 – NCATS – 2017

Test: 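Candidate targets for better recombinant protein yield in mammalian cells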 (primary screen)
Cell system: human HEK293 embryonic kidney cells stably expressing firefly luciferase (HEK-CMV-Luc2-Hygro)
Knock-down reagent: single siRNA against human genes, 0.8 pmol siRNA per well
Timing: 72 h
Measurement: 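Luciferase light (ONE-Glo) measured on one replicate plate set and viability (CellTiter-Glo) on the other, scaled to a negative control siRNA, with robust z-scores and luciferase per cell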
Scale: total luciferase, z-score: higher = more reporter protein produced
Rule for the call: 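An siRNA counts as active if its total luciferase robust z-score exceeds 3; genes with two or more such siRNAs out of three were retested with fresh siRNAs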
Meaning of the calls: active = raised luciferase; inactive = no rise
Shown is a random part of about 59,000 reagents. In the full data, about 1,510 (2.6%) were called active. 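Calls use total luciferase alone and ignore viability, so some active siRNAs may act by altering cell number.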 The numbers tell different reagents against one gene apart. Not all columns of the deposit are shown.

gene,siRNA no.,"total luciferase, z-score",Call
DISP1,1,-0.34,inactive
DISP1,2,0.535,inactive
DISP1,3,-0.412,inactive
ZNF665,1,-0.547,inactive
ZNF665,2,1.03,inactive
ZNF665,3,0.511,inactive
SHOX2,1,0.46,inactive
SHOX2,2,-0.472,inactive
SHOX2,3,1.35,inactive
HSD11B1,1,0.544,inactive
HSD11B1,2,0.389,inactive
HSD11B1,3,1.43,inactive
BLVRB,1,-1.29,inactive
BLVRB,2,-0.738,inactive
BLVRB,3,-0.589,inactive
FABP5P1,1,1.89,inactive
FABP5P1,2,1.65,inactive
FABP5P1,3,0.211,inactive
CRB1,1,-0.0155,inactive
CRB1,2,-0.319,inactive
CRB1,3,0.979,inactive
METAP1D,1,-0.637,inactive
METAP1D,2,-2.09,inactive
METAP1D,3,-0.758,inactive
NUDT6,1,2.18,inactive
NUDT6,2,0.708,inactive
NUDT6,3,-1.18,inactive
SERPINA3,1,0.219,inactive
SERPINA3,2,0.628,inactive
SERPINA3,3,-0.0759,inactive
SLC45A3,1,-1.06,inactive
SLC45A3,2,-0.488,inactive
SLC45A3,3,-0.385,inactive
FAM53B,1,0.45,inactive
FAM53B,2,0.417,inactive
FAM53B,3,-2.05,inactive
NEK1,1,0.704,inactive
NEK1,2,0.573,inactive
NEK1,3,0.479,inactive
CAV2,1,1.86,inactive
CAV2,2,-2.1,inactive
CAV2,3,-0.156,inactive
RABGGTA,1,1.99,inactive
RABGGTA,2,-0.284,inactive
RABGGTA,3,-2.03,inactive
FPR3,1,-0.559,inactive
FPR3,2,0.104,inactive
FPR3,3,-1.35,inactive
ARHGAP17,1,1.13,inactive
ARHGAP17,2,-1.25,inactive
ARHGAP17,3,0.527,inactive
ZNF75D,1,-0.738,inactive
ZNF75D,2,3.15,active
ZNF75D,3,-1.45,inactive
LOC401123 (retired record),1,1.71,inactive
LOC401123 (retired record),2,-0.298,inactive
LOC401123 (retired record),3,0.627,inactive
TM9SF3,1,-0.888,inactive
TM9SF3,2,-0.444,inactive
TM9SF3,3,-0.221,inactive
DHRS7,1,0.401,inactive
DHRS7,2,-0.148,inactive
DHRS7,3,0.553,inactive
TUFM,1,0.0358,inactive
TUFM,2,0.24,inactive
TUFM,3,0.928,inactive
CDK16,1,-0.765,inactive
CDK16,2,-0.209,inactive
CDK16,3,-0.214,inactive
TAGLN,1,0.587,inactive
TAGLN,2,0.829,inactive
TAGLN,3,3.88,active
ZFP57,1,0.577,inactive
ZFP57,2,1.26,inactive
ZFP57,3,0.38,inactive

9 successive entries already listed, quoted:
gene,siRNA no.,"total luciferase, z-score",Call
FPR3,2,0.104,inactive
FPR3,3,-1.35,inactive
ARHGAP17,1,1.13,inactive
ARHGAP17,2,-1.25,inactive
ARHGAP17,3,0.527,inactive
ZNF75D,1,-0.738,inactive
ZNF75D,2,3.15,active
ZNF75D,3,-1.45,inactive
LOC401123 (retired record),1,1.71,inactive
